# Literature values, collected in patent US10307401B2, “Compositions and methods for treatment of prostate cancer” (priority 2016, dated 2019).
# For at least one compound, name, drawing or mass did not settle the structure.
# Tested on: KLK3 mRNA in LNCaP/AR cells
# Details: LNCaP/AR cell line; cited from earlier work
structure (smiles),measurement,value
CC(O)(CS(=O)(=O)c1ccc(F)cc1)C(=O)Nc1ccc(C#N)c(C(F)(F)F)c1 (stereo not shown) [bicalutamide],AR activation in androgen-depleted conditions,activates AR
